PMC2873905
No constants are given. Whether binding was seen depends on the method and setting. For some of these results: Binding seen in cells or lysates may run through a third protein. Some results given as binding are weak or reduced against the parent protein; the word gives no strength. Sequences can lack the tags named with a protein. One block for each binder: values may come before it.

Experiments:
[1] = target: T1, GST-fused intact C-terminal mouse usherin (5053-5193 aa) (mouse) (UniProt Q2QI47); test: pull-down; GST-fused usherin fragments expressed in E. coli, incubated with mouse retinal lysate and glutathione sepharose beads for 2 hours at 4°C; washed three times with lysis buffer (50 mM Tris-HCl pH8.0, 150 mM NaCl, 0.5% TritonX-100, 5 mM EDTA, 1 mM DTT); whirlin detected by blot
T1 sequence: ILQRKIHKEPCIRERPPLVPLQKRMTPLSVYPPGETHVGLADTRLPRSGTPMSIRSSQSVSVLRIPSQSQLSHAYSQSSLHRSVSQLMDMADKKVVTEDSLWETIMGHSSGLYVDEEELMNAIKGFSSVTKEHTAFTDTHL

[2] = target: T2, GST-fused mutant C-terminal mouse usherin without PDZ-binding domain (5053-5186 aa) (mouse) (UniProt Q2QI47); test: as above
T2 sequence: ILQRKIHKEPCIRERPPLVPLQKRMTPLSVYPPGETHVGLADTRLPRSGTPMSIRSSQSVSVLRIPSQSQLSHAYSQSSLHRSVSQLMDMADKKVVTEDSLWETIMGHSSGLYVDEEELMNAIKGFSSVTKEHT

[3] = target: T3, mouse usherin C-terminal fragment (5053-5193 aa), yeast two-hybrid fusion (mouse) (UniProt Q2QI47); test: two-hybrid; co-transformation of pGBKT7 and pGADT7 constructs in yeast; growth on SD-4 (-Leu, -Trp, -Ade, -His) plates means interaction; done in two orientations
T3 sequence: T1 sequence

binding [1]: binds
binding [2]: no binding
B1: endogenous whirlin from mouse retinal lysate (protein, UniProt Q80VW5-3 1-907)
chain: MNAQLDGLSVSSSSTGSLGSAAAAAGGGGGAGLRLLSANVRQLHQALTALLSEPEREQFTHCLNAYHARRNVFDLVRTLRVLLDSPVKRRLLPMLRLVIPRSDQLLFDQYTAEGLYLPATTPYRQPAWAAPDGAGPGEVRLVSLRRAKAHEGLGFSIRGGSEHGVGIYVSLVEPGSLAEKEGLRVGDQILRVNDKSLARVTHAEAVKALKGSKKLVLSVYSAGRIPGGYVTNHIYTWVDPQGRSTSPPSSLPQPHGSTLRQREDDRRSTLHLLQSGDEKKVNLVLGDGRSLGLTIRGGAEYGLGIYITGVDPGSEAESSGLKVGDQILEVNGRSFLNILHDEAVKLLKSSRHLILTVKDVGRLPHARTTVDQTKWIASSRIGESVANSAGFPGDHTEEGTSKPGFYKGPAGSQVTLSSLGNQTRALLDDQARHLLTEQERATMMYYLAQYRGGTISVEAMVMALFELLNTHAKFSLLSEVRSIISPQDLDRFDHLVLRREIESMKARQPPGPGVGDTYSMVSYSDTGSSTGSHGTSTTVSSARNTLDLEGTGETTQGSTNALPDVSVDDVKSPSEDLPGIKPPPPPPPLAQGHDRLLGQPRKPGREDPAPLSSAAHSGIVFSAPRNRSPPPGTAPTPGPSSAQDSPSSPIYASISHANPSSRKPLDTHLALVNQHPIGPFPRVQSPPHLKSPPAETPGAGACLPPPSPSEHPDAVGANQHFVLVEVHRPDSEPDVNEVRALPQTRTASTLSQLSDSGQTLSEDSGVDAGETEASTSGRGRQTASAKNKNGKEQPRTERTAEGANKPPGLLEPTSTLVRVRKSAATLGIAIEGGANTRQPLPRIVTIQRGGSAHNCGQLKVGHVILEVNGQTLRGKEHKEAARIIAEAFKTKERDYIDFLVTEFNVML

binding [3]: binds
B2: mouse whirlin N-terminus (3-472 aa), yeast two-hybrid fusion (domain or fragment, UniProt Q80VW5-3 3-472)
chain: AQLDGLSVSSSSTGSLGSAAAAAGGGGGAGLRLLSANVRQLHQALTALLSEPEREQFTHCLNAYHARRNVFDLVRTLRVLLDSPVKRRLLPMLRLVIPRSDQLLFDQYTAEGLYLPATTPYRQPAWAAPDGAGPGEVRLVSLRRAKAHEGLGFSIRGGSEHGVGIYVSLVEPGSLAEKEGLRVGDQILRVNDKSLARVTHAEAVKALKGSKKLVLSVYSAGRIPGGYVTNHIYTWVDPQGRSTSPPSSLPQPHGSTLRQREDDRRSTLHLLQSGDEKKVNLVLGDGRSLGLTIRGGAEYGLGIYITGVDPGSEAESSGLKVGDQILEVNGRSFLNILHDEAVKLLKSSRHLILTVKDVGRLPHARTTVDQTKWIASSRIGESVANSAGFPGDHTEEGTSKPGFYKGPAGSQVTLSSLGNQTRALLDDQARHLLTEQERATMMYYLAQYRGGTISVEAMVMALFELLNTHA

binding [3]: binds
B3: mouse whirlin (full-length, 3-907 aa), yeast two-hybrid fusion (protein, UniProt Q80VW5-3 3-907)
chain: AQLDGLSVSSSSTGSLGSAAAAAGGGGGAGLRLLSANVRQLHQALTALLSEPEREQFTHCLNAYHARRNVFDLVRTLRVLLDSPVKRRLLPMLRLVIPRSDQLLFDQYTAEGLYLPATTPYRQPAWAAPDGAGPGEVRLVSLRRAKAHEGLGFSIRGGSEHGVGIYVSLVEPGSLAEKEGLRVGDQILRVNDKSLARVTHAEAVKALKGSKKLVLSVYSAGRIPGGYVTNHIYTWVDPQGRSTSPPSSLPQPHGSTLRQREDDRRSTLHLLQSGDEKKVNLVLGDGRSLGLTIRGGAEYGLGIYITGVDPGSEAESSGLKVGDQILEVNGRSFLNILHDEAVKLLKSSRHLILTVKDVGRLPHARTTVDQTKWIASSRIGESVANSAGFPGDHTEEGTSKPGFYKGPAGSQVTLSSLGNQTRALLDDQARHLLTEQERATMMYYLAQYRGGTISVEAMVMALFELLNTHAKFSLLSEVRSIISPQDLDRFDHLVLRREIESMKARQPPGPGVGDTYSMVSYSDTGSSTGSHGTSTTVSSARNTLDLEGTGETTQGSTNALPDVSVDDVKSPSEDLPGIKPPPPPPPLAQGHDRLLGQPRKPGREDPAPLSSAAHSGIVFSAPRNRSPPPGTAPTPGPSSAQDSPSSPIYASISHANPSSRKPLDTHLALVNQHPIGPFPRVQSPPHLKSPPAETPGAGACLPPPSPSEHPDAVGANQHFVLVEVHRPDSEPDVNEVRALPQTRTASTLSQLSDSGQTLSEDSGVDAGETEASTSGRGRQTASAKNKNGKEQPRTERTAEGANKPPGLLEPTSTLVRVRKSAATLGIAIEGGANTRQPLPRIVTIQRGGSAHNCGQLKVGHVILEVNGQTLRGKEHKEAARIIAEAFKTKERDYIDFLVTEFNVML
